Measured values from PMC6239283.
These are yes or no findings as the source states them, for the method shown. In cells and extracts the contact can be indirect. Some results given as binding are weak or reduced against the parent protein; the word gives no strength. Where a sequence is shown, tags or fusion partners need not be part of it.

Tests used:
Experiment in all cases: split reporter; BiFC in rice protoplasts transfected using PEG; OsTGAs fused to cYFP (and nYFP for dimer tests), NHs fused to nYFP; reconstituted YFP seen by confocal microscopy
[1] = target: T1, OsTGA2 (BiFC split-YFP fusion) (rice (Oryza sativa)) (UniProt Q6IVC2)
T1 sequence: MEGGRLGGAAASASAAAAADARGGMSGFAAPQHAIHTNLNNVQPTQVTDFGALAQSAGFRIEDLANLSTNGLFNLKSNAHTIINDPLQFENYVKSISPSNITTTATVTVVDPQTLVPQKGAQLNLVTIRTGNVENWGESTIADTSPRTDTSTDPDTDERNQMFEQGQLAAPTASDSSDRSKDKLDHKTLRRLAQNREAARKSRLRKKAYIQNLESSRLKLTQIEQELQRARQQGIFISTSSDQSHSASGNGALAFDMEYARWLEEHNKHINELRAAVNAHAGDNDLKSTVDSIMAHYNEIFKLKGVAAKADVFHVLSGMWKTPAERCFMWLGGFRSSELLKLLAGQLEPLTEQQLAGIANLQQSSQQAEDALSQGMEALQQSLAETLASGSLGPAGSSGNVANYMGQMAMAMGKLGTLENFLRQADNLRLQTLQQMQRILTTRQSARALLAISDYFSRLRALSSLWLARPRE

[2] = target: T2, OsTGA3 (BiFC split-YFP fusion) (rice (Oryza sativa)) (UniProt Q6IVC3)
T2 sequence: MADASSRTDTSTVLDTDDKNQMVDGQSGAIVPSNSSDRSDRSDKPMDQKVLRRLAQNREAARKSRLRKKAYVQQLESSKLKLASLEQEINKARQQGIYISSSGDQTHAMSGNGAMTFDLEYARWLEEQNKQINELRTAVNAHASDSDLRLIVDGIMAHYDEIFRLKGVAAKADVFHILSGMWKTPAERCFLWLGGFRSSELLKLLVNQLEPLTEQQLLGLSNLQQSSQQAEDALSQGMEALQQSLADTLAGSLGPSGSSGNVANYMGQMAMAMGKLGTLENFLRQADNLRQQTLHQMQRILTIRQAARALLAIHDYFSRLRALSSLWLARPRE

[3] = target: T3, OsTGA5 (BiFC split-YFP fusion) (rice (Oryza sativa)) (UniProt Q0JNL3)
T3 sequence: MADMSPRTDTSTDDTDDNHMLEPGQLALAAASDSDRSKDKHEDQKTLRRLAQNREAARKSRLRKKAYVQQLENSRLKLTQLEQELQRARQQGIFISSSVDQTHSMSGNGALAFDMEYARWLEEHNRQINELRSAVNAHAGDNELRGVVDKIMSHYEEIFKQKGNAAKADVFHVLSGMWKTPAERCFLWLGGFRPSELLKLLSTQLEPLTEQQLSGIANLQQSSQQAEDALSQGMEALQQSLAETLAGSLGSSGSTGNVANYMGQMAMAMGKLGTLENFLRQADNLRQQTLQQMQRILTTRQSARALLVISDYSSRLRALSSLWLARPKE

Measured: binding

B1: OsNH2, rice NPR1 homolog 2 (BiFC nYFP fusion) (protein, UniProt Q0JJ01 1-635)
chain: MPARSAVVVIAMEPSSSITIASSSSYLSNGSSPCSVSLAPPGAGAVAAQAAPVAAGEGGGGGGGGGGGGSSSVEVVSLNRLSANLERLLLDSDLDCSDADVDVADGGPPVPVHRCILAARSTFFYNLFAARGRGGDGAAGGGGGGGGGGGERTGGRPRYKMEELVPGGRVGRDAFLSLLGYLYTGKLRPAPDDVVSCADPMCPHDSCPPAIRFNVEQMYAAWAFKITELISLFQRRLLNFVDKTLVEDVLPILQVAFHSELTPVLEKCIRRIARSNLDNVSLDKELPPEVAVQIKEIRQKSQPNEGDTVISDPVHEKRVRRIHRALDSDDVELVKLLLNESEITLDDANALHYAAAYCDSKVVSELLDLRLANLNLKNSRGYTALHLAAMRREPAIIMCLLNKGAAVSQLTADGQSAMSICRRLTRMKDYNTKMEQGQESNKDRLCIDILDREMIRKPMAVEDSVTSPLLADDLHMKLLYLENRVAFARLFFPAEAKVAMQIAQADTTPEFGIVPAASTSGKLKEVDLNETPVTQNKRLRSRVDALMKTVELGRRYFPNCSQVLDKFLEDDLPDSPDALDLQNGTSDEQNVKRMRFCELKEDVRKAFSKDRADNSMFSILSSSSSSSPPPKVAKK
binds weakly: all assays above
